From patent US20230089620A1
Results are given in words; binding and its absence hold for the method and conditions named. Some binding calls cover weakened binding; strength is not graded here.

Chains of the proteins cited; added tags and fusions are not shown. Residues count along the entry.
UniProt P60568, residues 21-153: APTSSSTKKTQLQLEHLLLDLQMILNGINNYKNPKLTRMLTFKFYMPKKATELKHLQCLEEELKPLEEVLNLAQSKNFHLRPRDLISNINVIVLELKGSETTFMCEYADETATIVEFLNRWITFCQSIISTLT

B1: C2-53 full-length fully human anti-IL-2 antibody (antibody, human IgG1, kappa, L234A L235A, V domains shown)
VH: EVQLVESGGGLVQPGRSLILSCAASGFTFDDYAMHWVRQAPGKGLEWVSGISWNSGSIGYADSVKGRFTISRDNAKNSLYLQMNSLRAEDTALYYCAKDQLRWGTYYYYGMDVWGQGTTVTVSS
VL: DIQMTQSPSTLSASVGDRVTITCRASQSVSIWVAWYQQKPGKAPKLLIYKASSLERGVPTRFSGSGSGTEFTLTISSLQPEDFATYHCQQYDTGATFGQGTKVEMKR
B2: D3-68 full-length fully human anti-IL-2 antibody (antibody, human IgG1, kappa, L234A L235A, V domains shown)
VH: QVQLVQSGPEVKKPGASVKVSCKASGYTFTSYGISWVRRAPGQGLEWMGWISAYNGNTNYAQKLQGRVTMTTDTSTSTAYMELRSLRSDDTAVYYCARDLQSPTYYYGSGVIDYWGQGTLVTVSS
VL: DIQLTQSPSTLSASVGDRVTISCRASRAVSPWLAWYQHRPGQAPKLLIYAASSLQSGVPSRFSGSGSGTDFTLTISSLQPEDFATYYCQQYRSYPFTFGPGTTVDIRR
B3: D2-60 full-length fully human anti-IL-2 antibody (antibody, human IgG1, kappa, L234A L235A, V domains shown)
VH: QVQLVQSGAEVKKPGASVKVSCKASGYTFTSYGISWVRQAPGQGLEWMGWISAYNGNTNYAQKLQGRVTMTTDTSTSTAYMELRSLRSDDTAVYYCAREYSSWYSGGMDVWGQGTTVTVSS
VL: DIQMTQSPSSLSASVGDRVTITCRASQGISNYLAWYQQKPGKVPKLLIYAASTLQSGVPSRFSGSGSGTDFTLTISSLQPEDVATYYCQKYDSAPFTFGQGTRLEIKR

Target: IL-2 (C013, Novoprotein) (UniProt P60568)
Assay: SPR (Biacore T200), antibody captured on Protein A chip, IL-2 analyte

Row | binding | Binder
1 | binds | B1
2 | binds | B2
3 | binds | B3
